# Test results taken from article PMC7305291, “Cryo-EM snapshots of mycobacterial arabinosyltransferase complex EmbB2-AcpM2” (Protein & Cell, 2020).
# The chains behind the UniProt entries cited, without tags or fusion partners.
# UniProt A0R0B3: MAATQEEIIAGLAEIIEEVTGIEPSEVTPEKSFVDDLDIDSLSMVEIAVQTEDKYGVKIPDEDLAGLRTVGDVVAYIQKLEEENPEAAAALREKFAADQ
# Where a chain is given by its changes, count along the chain named. No constants are given. Whether binding was seen depends on the method and setting. In cells and extracts the contact can be indirect. A yes stands for co-enrichment or nearness to the bait. Other partners may have been found. For some assays here: No binding means not detected with the bait. Sequences can lack the tags named with a protein.
# How the values were obtained:
# [1] = biological target: T1, Mycobacterium smegmatis arabinosyltransferase EmbB (MSMEG_6389) (Mycobacterium smegmatis) (UniProt Q50395); experiment: co-purification (silver-stained gel, mass spectrometry); EmbB overexpressed in M. smegmatis and purified; endogenous AcpM in the purified sample identified by silver staining (Fig. S1C) and mass spectrometry (Fig. S1D)
# T1 sequence: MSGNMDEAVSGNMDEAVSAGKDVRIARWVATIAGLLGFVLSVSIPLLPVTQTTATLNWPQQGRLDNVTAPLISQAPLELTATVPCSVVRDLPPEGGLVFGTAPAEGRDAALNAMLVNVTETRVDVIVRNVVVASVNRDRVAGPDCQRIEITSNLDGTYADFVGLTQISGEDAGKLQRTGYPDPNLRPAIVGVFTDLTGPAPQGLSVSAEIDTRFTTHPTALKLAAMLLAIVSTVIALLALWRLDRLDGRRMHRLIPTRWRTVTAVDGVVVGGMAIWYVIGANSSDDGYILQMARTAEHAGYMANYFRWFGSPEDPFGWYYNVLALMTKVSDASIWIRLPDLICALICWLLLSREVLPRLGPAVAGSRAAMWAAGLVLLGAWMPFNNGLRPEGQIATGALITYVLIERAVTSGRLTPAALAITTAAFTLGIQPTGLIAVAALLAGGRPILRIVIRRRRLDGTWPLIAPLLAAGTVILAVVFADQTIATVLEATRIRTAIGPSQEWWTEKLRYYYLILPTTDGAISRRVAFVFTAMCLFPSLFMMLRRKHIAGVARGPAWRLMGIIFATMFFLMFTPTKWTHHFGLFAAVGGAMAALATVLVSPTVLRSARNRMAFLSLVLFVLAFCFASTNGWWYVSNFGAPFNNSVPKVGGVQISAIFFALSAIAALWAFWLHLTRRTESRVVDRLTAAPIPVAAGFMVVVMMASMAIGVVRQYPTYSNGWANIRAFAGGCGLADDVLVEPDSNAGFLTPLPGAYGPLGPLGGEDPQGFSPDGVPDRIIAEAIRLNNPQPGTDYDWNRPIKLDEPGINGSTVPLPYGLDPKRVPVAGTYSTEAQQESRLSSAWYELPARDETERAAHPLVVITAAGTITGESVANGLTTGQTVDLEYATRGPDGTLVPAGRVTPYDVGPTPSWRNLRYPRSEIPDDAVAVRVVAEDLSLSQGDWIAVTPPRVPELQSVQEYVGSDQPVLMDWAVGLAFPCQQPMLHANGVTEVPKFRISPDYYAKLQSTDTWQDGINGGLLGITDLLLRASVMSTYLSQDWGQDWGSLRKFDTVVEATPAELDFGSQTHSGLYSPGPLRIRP
# [2] = biological target: T2, EmbB triple-alanine mutant (R249, R253, and R454) (Mycobacterium smegmatis) (UniProt Q50395); experiment: as above
# T2 sequence: T1 sequence with R249A, R253A, R454A
substance,measurement,setting,value
acyl-carrier-protein AcpM (MSMEG_4326) (from UniProt A0R0B3 1-99),binding,[1],binds
same,binding,[2],no binding
